For 2 molecules, binding results are on record in publication doi:10.1101/2023.01.17.524225 (bioRxiv, 2023).

Assay [1] deals with T1, N-terminally tagged HaloTag-GID4 (human) (UniProt Q8IVV7).
T1 sequence (chain, HaloTag NanoBRET 618 Ligand bound to the HaloTag): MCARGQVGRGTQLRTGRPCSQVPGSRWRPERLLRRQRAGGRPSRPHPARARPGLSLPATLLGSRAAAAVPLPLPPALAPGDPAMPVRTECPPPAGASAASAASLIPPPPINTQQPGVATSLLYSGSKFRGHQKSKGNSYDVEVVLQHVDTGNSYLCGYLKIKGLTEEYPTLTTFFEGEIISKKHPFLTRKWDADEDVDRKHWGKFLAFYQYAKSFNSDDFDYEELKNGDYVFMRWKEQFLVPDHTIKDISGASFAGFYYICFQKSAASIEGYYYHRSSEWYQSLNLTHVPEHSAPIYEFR
Briefly: FRET or BRET. A general note: Bioluminescence resonance energy transfer reports proximity on the nanometre scale.

Assay [2] concerns the target T1, N-terminally tagged HaloTag-GID4 (human). The assay is described as follows: FRET or BRET. The source holds these as a separate data set.

Like-named read-outs stand apart in the source and are kept apart here. No constants are given. Whether binding was seen depends on the method and setting. Binding seen in cells or lysates may run through a third protein. Some entries that bind do so weakly or less than the wild type. Sequences can lack the tags named with a protein.

B1: full-length C-terminally NanoLuc-tagged DDX21 (protein, UniProt Q9NR30 1-783)
chain: MPGKLRSDAGLESDTAMKKGETLRKQTEEKEKKEKPKSDKTEEIAEEEETVFPKAKQVKKKAEPSEVDMNSPKSKKAKKKEEPSQNDISPKTKSLRKKKEPIEKKVVSSKTKKVTKNEEPSEEEIDAPKPKKMKKEKEMNGETREKSPKLKNGFPHPEPDCNPSEAASEESNSEIEQEIPVEQKEGAFSNFPISEETIKLLKGRGVTFLFPIQAKTFHHVYSGKDLIAQARTGTGKTFSFAIPLIEKLHGELQDRKRGRAPQVLVLAPTRELANQVSKDFSDITKKLSVACFYGGTPYGGQFERMRNGIDILVGTPGRIKDHIQNGKLDLTKLKHVVLDEVDQMLDMGFADQVEEILSVAYKKDSEDNPQTLLFSATCPHWVFNVAKKYMKSTYEQVDLIGKKTQKTAITVEHLAIKCHWTQRAAVIGDVIRVYSGHQGRTIIFCETKKEAQELSQNSAIKQDAQSLHGDIPQKQREITLKGFRNGSFGVLVATNVAARGLDIPEVDLVIQSSPPKDVESYIHRSGRTGRAGRTGVCICFYQHKEEYQLVQVEQKAGIKFKRIGVPSATEIIKASSKDAIRLLDSVPPTAISHFKQSAEKLIEEKGAVEALAAALAHISGATSVDQRSLINSNVGFVTMILQCSIEMPNISYAWKELKEQLGEEIDSKVKGMVFLKGKLGVCFDVPTASVTEIQEKWHDSRRWQLSVATEQPELEGPREGYGGFRGQREGSRGFRGQRDGNRRFRGQREGSRGPRGQRSGGGNKSNRSQNKGQKRSFSKAFGQ
In the case of B1, the binding result in assay [1] is “no binding (condition: with PFI-7)”; in assay [2], “binds”.

B2: full-length C-terminally NanoLuc-tagged DDX50 (protein, UniProt Q9BQ39 1-737)
chain: MPGKLLWGDIMELEAPLEESESQKKERQKSDRRKSRHHYDSDEKSETRENGVTDDLDAPKAKKSKMKEKLNGDTEEGFNRLSDEFSKSHKSRRKDLPNGDIDEYEKKSKRVSSLDTSTHKSSDNKLEETLTREQKEGAFSNFPISEETIKLLKGRGVTYLFPIQVKTFGPVYEGKDLIAQARTGTGKTFSFAIPLIERLQRNQETIKKSRSPKVLVLAPTRELANQVAKDFKDITRKLSVACFYGGTSYQSQINHIRNGIDILVGTPGRIKDHLQSGRLDLSKLRHVVLDEVDQMLDLGFAEQVEDIIHESYKTDSEDNPQTLLFSATCPQWVYKVAKKYMKSRYEQVDLVGKMTQKAATTVEHLAIQCHWSQRPAVIGDVLQVYSGSEGRAIIFCETKKNVTEMAMNPHIKQNAQCLHGDIAQSQREITLKGFREGSFKVLVATNVAARGLDIPEVDLVIQSSPPQDVESYIHRSGRTGRAGRTGICICFYQPRERGQLRYVEQKAGITFKRVGVPSTMDLVKSKSMDAIRSLASVSYAAVDFFRPSAQRLIEEKGAVDALAAALAHISGASSFEPRSLITSDKGFVTMTLESLEEIQDVSCAWKELNRKLSSNAVSQITRMCLLKGNMGVCFDVPTTESERLQAEWHDSDWILSVPAKLPEIEEYYDGNTSSNSRQRSGWSSGRSGRSGRSGGRSGGRSGRQSRQGSRSGSRQDGRRRSGNRNRSRSGGHKRSFD
Regarding B2, the binding result in assay [1] is “no binding (condition: with PFI-7)”; in assay [2] it was “binds”.
